Results are given in words; binding and its absence hold for the method and conditions named. Binding seen in cells or lysates may run through a third protein. A yes stands for co-enrichment or nearness to the bait. Other partners may have been found. One block for each molecule: values may come before it.
Molecular target: Adenomatous Polyposis Coli (APC), endogenous full-length (human (endogenous in HCT116βw)) (UniProt P25054)
Assay: affinity purification with mass spectrometry; proteins co-precipitated with APC-M2 pAb from HCT116βw cell lysates, resolved on a 4-12% NUPAGE gel, nine bands excised and pooled, LC-MS/MS in independent duplicate; proteins found with preimmune sera subtracted

Sequences of proteins named here, by UniProt entry; tags and fusion partners are left off.
UniProt P25054: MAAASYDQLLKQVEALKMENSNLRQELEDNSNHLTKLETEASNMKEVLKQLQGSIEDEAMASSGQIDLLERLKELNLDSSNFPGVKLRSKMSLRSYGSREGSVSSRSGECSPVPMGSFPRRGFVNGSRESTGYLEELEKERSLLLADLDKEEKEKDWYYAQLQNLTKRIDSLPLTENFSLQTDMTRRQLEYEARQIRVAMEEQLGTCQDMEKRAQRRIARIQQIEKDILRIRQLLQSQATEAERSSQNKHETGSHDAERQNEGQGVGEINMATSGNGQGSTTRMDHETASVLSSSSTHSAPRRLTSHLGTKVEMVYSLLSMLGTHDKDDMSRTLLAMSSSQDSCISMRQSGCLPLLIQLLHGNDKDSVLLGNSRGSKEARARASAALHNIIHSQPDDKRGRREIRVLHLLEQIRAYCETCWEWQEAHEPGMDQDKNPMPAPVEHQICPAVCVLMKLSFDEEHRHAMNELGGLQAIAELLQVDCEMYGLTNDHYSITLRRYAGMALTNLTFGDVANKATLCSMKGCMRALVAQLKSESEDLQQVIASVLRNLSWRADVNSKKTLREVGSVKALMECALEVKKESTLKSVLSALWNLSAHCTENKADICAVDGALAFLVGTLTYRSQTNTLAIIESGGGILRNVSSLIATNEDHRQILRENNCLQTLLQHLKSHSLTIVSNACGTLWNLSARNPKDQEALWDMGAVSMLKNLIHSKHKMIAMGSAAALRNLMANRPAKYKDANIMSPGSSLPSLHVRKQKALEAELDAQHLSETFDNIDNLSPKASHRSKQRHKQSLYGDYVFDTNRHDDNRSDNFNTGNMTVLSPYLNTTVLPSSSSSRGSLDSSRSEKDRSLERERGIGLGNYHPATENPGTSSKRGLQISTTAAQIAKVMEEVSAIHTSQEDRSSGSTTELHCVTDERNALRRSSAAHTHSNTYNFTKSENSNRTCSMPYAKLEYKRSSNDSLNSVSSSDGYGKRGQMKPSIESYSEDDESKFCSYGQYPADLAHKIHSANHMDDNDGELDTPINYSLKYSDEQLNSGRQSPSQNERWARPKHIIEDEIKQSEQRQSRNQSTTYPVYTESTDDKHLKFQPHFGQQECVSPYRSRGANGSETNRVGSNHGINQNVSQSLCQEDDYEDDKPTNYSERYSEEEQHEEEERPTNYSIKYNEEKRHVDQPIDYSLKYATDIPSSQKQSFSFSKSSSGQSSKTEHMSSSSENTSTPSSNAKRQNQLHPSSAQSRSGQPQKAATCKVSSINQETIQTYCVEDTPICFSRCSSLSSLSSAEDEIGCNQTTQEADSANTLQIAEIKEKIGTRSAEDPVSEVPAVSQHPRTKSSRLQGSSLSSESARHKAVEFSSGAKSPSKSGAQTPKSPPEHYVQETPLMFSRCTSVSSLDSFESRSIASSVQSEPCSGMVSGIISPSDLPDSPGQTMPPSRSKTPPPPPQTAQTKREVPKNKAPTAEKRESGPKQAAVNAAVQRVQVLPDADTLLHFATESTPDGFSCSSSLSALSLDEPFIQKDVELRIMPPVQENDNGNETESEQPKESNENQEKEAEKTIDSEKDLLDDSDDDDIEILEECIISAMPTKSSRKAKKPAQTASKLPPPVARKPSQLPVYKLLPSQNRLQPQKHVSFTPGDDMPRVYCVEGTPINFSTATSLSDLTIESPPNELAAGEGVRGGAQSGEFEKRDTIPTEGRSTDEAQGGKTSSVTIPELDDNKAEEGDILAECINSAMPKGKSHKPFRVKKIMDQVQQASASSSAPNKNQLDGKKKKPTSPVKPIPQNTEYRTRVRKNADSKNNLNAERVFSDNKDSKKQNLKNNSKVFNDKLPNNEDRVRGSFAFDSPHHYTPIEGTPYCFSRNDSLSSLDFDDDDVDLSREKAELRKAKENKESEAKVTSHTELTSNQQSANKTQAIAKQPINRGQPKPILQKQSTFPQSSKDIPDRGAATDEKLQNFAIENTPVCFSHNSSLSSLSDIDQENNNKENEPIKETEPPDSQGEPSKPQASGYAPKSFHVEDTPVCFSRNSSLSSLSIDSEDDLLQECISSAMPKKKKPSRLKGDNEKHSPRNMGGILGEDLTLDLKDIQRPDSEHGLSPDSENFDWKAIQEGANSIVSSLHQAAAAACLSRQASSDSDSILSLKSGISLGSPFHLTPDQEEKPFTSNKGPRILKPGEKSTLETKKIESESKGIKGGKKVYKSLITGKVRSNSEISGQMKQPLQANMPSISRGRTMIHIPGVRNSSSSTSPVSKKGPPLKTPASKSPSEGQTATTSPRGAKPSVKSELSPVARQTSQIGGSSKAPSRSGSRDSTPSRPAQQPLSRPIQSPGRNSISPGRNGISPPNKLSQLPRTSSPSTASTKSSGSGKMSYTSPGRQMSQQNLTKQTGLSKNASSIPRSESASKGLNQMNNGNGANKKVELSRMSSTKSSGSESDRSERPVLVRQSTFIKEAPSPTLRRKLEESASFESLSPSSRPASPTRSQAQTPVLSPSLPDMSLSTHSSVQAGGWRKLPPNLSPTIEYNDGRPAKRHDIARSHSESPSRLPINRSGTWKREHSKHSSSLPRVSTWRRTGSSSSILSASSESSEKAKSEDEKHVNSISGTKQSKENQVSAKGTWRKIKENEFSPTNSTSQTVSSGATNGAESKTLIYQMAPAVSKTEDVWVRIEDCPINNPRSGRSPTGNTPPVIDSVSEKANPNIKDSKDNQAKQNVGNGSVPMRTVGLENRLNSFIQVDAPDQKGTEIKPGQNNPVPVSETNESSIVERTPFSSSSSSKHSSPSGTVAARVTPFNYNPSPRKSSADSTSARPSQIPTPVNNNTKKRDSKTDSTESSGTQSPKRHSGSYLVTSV
UniProt P20700: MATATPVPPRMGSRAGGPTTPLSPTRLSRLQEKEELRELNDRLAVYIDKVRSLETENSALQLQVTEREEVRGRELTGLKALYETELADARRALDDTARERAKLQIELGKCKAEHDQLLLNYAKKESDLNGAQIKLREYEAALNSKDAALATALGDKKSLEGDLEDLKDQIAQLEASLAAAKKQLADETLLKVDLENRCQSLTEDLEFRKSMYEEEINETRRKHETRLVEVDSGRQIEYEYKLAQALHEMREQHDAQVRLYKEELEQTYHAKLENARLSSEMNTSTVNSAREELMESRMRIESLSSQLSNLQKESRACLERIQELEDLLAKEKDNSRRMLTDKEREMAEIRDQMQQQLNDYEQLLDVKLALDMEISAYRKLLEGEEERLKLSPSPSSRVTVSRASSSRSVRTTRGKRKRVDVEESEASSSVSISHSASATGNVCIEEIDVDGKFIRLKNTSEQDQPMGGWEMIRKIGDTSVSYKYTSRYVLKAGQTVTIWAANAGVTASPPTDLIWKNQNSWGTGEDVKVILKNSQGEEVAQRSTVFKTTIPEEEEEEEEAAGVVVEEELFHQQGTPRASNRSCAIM

binding: binds
Molecule: Lamin B1 (from UniProt P20700 1-586)

binding: binds
B1: Keratin 81 (protein, UniProt Q14533 1-505)
chain: MTCGSGFGGRAFSCISACGPRPGRCCITAAPYRGISCYRGLTGGFGSHSVCGGFRAGSCGRSFGYRSGGVCGPSPPCITTVSVNESLLTPLNLEIDPNAQCVKQEEKEQIKSLNSRFAAFIDKVRFLEQQNKLLETKLQFYQNRECCQSNLEPLFEGYIETLRREAECVEADSGRLASELNHVQEVLEGYKKKYEEEVSLRATAENEFVALKKDVDCAYLRKSDLEANVEALIQEIDFLRRLYEEEILILQSHISDTSVVVKLDNSRDLNMDCIIAEIKAQYDDIVTRSRAEAESWYRSKCEEMKATVIRHGETLRRTKEEINELNRMIQRLTAEVENAKCQNSKLEAAVAQSEQQGEAALSDARCKLAELEGALQKAKQDMACLIREYQEVMNSKLGLDIEIATYRRLLEGEEQRLCEGIGAVNVCVSSSRGGVVCGDLCVSGSRPVTGSVCSAPCNGNVAVSTGLCAPCGQLNTTCGGGSCGVGSCGISSLGVGSCGSSCRKC

binding: binds
B2: Keratin 82 (protein, UniProt Q9NSB4 1-513)
chain: MSYHSFQPGSRCGSQSFSSYSAVMPRMVTHYAVSKGPCRPGGGRGLRALGCLGSRSLCNVGFGRPRVASRCGGTLPGFGYRLGATCGPSACITPVTINESLLVPLALEIDPTVQRVKRDEKEQIKCLNNRFASFINKVRFLEQKNKLLETKWNFMQQQRCCQTNIEPIFEGYISALRRQLDCVSGDRVRLESELCSLQAALEGYKKKYEEELSLRPCVENEFVALKKDVDTAFLMKADLETNAEALVQEIDFLKSLYEEEICLLQSQISETSVIVKMDNSRELDVDGIIAEIKAQYDDIASRSKAEAEAWYQCRYEELRVTAGNHCDNLRNRKNEILEMNKLIQRLQQETENVKAQRCKLEGAIAEAEQQGEAALNDAKCKLAGLEEALQKAKQDMACLLKEYQEVMNSKLGLDIEIATYRRLLEGEEHRLCEGIGPVNISVSSSKGAFLYEPCGVSTPVLSTGVLRSNGGCSIVGTGELYVPCEPQGLLSCGSGRKSSMTLGAGGSSPSHKH

binding: binds
B3: Lamin B2 (protein, UniProt Q03252 1-620)
chain: MSPPSPGRRREQRRPRAAATMATPLPGRAGGPATPLSPTRLSRLQEKEELRELNDRLAHYIDRVRALELENDRLLLKISEKEEVTTREVSGIKALYESELADARRVLDETARERARLQIEIGKLRAELDEVNKSAKKREGELTVAQGRVKDLESLFHRSEVELAAALSDKRGLESDVAELRAQLAKAEDGHAVAKKQLEKETLMRVDLENRCQSLQEELDFRKSVFEEEVRETRRRHERRLVEVDSSRQQEYDFKMAQALEELRSQHDEQVRLYKLELEQTYQAKLDSAKLSSDQNDKAASAAREELKEARMRLESLSYQLSGLQKQASAAEDRIRELEEAMAGERDKFRKMLDAKEQEMTEMRDVMQQQLAEYQELLDVKLALDMEINAYRKLLEGEEERLKLSPSPSSRVTVSRATSSSSGSLSATGRLGRSKRKRLEVEEPLGSGPSVLGTGTGGSGGFHLAQQASASGSVSIEEIDLEGKFVQLKNNSDKDQSLGNWRIKRQVLEGEEIAYKFTPKYILRAGQMVTVWAAGAGVAHSPPSTLVWKGQSSWGTGESFRTVLVNADGEEVAMRTVKKSSVMRENENGEEEEEEAEFGEEDLFHQQGDPRTTSRGCYVM
